# Data taken from US20230073692A1 (CYTOMX THERAPEUTICS, published 2023).
# These are yes or no findings as the source states them, for the method shown. Binding calls can cover weak binding; strength is not graded here.
# Molecular target: SLC34A2
# Test: paralog/homolog binding assessment (FIG. 2)
row,binding,Binder
1,binds,"cHv83-3a23.G1(L328C)k (antibody, V domains shown, the name says L328C in the IgG1 constant region; also called [Ag]AB-2; unconjugated antibody of OT1 / OT#1) VH: EVQLVESGGGLVQPGGSLRLSCAASGFTFSSYVMHWVRQAPGKGLEYVSGVSSSGDSTFYVDSVKGRFTISRDNSKNTLYLQMGSLRAEDMAVYYCARGGITGAPLVFDIWGQGTMVTVSS VL: DIQMTQSPSSLSASVGDRVTITCRASQSISRFLNWYQQKPGKAPKVLIYVTSSLQSGVPSRFSGSGSGTDFTLTISSLQPEDFATYYCQQSYNTPITFGQGTRLEIKR"
2,binds,"cHv83-1b15.G1(L328C)k (antibody, V domains shown, the name says L328C in the IgG1 constant region; also called [Ag]AB-3; cHv83-1b15.G1k(L328C)k) VH: EVQLVESGGGWVQPGGSLRLSCAASGFTFSSHIMYWVRQAPGKGLEYVSGISSNGLSSYYVDSVKGRFTISRDNSKNLLYVHMGSLKPEDMAMYYCARGGRDRVPAVFDYWGQGTLVTVSS VL: DIQMTQSPSSLSASIGDRVTITCRASQSIGTFLNWYQQKPGKAPKVLIYVASSLQSGVPSRFIGSGSGTDFTLTISSLQPEDFATYYCQQSYSVPITFGQGTRLEIKR"
